Experimental findings from patent US4826982A, “Quinolonecarboxylic acid derivatives” (Kyorin Pharmaceutical Co., Ltd., priority 1985, dated 1989) are described below.

Converted amounts (≈) assume the structure as drawn.

The assay deals with F. varium KYA 8501. The assay can be described thus: Antibacterial spectrum, MIC. The assay is classed as cell-based. Particulars: Fusobacterium varium, KYA8501.

On to `O=C(O)c1cn(C2CC2)c2cc(N3CCNCC3)c(F)cc2c1=O` [CPFX, ciprofloxacin, reference compound], for which inhibition of growth (MIC) required 25 µg/mL (≈ 75.4 µM).

Broadly, the MIC is the least concentration at which growth counts as inhibited. Higher therefore signals a need for much substance.
